# Assay results: the supplement of paper PMC12823440, “Inhibitors supercharge kinase turnover through native proteolytic circuits” (Nature, 2025)
# Amino acid sequences for entries named in this document (tags omitted).
# UniProt P21802, whole entry, looked up: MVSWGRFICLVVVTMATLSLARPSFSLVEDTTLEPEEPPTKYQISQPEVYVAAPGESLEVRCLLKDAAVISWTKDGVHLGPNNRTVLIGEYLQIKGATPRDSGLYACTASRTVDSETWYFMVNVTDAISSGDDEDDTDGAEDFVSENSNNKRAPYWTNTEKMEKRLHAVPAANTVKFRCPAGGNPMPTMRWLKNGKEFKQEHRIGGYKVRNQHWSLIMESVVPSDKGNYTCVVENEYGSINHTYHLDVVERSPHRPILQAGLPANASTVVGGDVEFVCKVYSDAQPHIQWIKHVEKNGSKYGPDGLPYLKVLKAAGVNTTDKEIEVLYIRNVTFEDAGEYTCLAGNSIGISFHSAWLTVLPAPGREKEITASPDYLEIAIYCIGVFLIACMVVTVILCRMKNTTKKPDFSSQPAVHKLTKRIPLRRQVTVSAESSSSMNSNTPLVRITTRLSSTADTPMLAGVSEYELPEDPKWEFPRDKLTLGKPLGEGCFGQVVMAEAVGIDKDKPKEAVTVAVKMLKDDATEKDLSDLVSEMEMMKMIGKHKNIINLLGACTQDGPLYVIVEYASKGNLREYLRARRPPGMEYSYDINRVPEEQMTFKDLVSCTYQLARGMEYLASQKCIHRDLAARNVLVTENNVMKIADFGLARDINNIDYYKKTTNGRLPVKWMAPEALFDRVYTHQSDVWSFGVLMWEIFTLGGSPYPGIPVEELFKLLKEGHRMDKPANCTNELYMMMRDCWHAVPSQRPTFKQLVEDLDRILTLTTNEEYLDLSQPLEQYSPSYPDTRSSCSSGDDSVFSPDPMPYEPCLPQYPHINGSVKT
# Where a name gives a salt, the structure may show the parent alone. The list shows a part of the results. The calls rarely recur for the same compound in another form.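 Kinases were expressed as nanoluciferase fusions in K562 cells and luminescence was read every 4 h between 2 and 18 h as percent of control, DMSO set to 100% and a positive control to 0%. A time point counts as decreased when the signal drops significantly (2 sigma). The hit call is the authors' own, does not follow from the count of time points alone, and its rule is not shown.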
# Target: FGFR2 (UniProt P21802)
# Experiment: kinase-Nluc reporter destabilization hit call (1 = scored as downregulated) (binary); higher = compound decreases kinase abundance
# Details: K562; 2-18 h
row,SMILES,kinase-Nluc reporter destabilization hit call
1,O=c1[nH]c2ccccc2n1C1CCN(Cc2ccc(-c3[nH]c4cc5ncnc5cc4nc3-c3ccccc3)cc2)CC1 [AKT inhibitor VIII] (2.5 µM),inactive: 0
2,C[C@H]1CC[C@]2(NC1)O[C@H]1C[C@H]3[C@@H]4CC[C@H]5C[C@@H](O[C@@H]6O[C@H](CO)[C@H](O[C@@H]7O[C@H](CO)[C@@H](O)[C@H](O[C@@H]8OC[C@@H](O)[C@H](O)[C@H]8O)[C@H]7O[C@@H]7O[C@H](CO)[C@@H](O)[C@H](O)[C@H]7O)[C@H](O)[C@H]6O)CC[C@]5(C)[C@H]4CC[C@]3(C)[C@H]1[C@@H]2C [Tomatine] (2.5 µM),inactive: 0
3,C=C[C@H]1CN2CC[C@]3(C(=O)Nc4ccccc43)[C@@H]2C[C@@H]1/C(=C\OC)C(=O)OC [Corynoxeine] (2 µM),inactive: 0
4,C=CC(=O)Nc1ccc2[nH]c(=O)n(C3CCN(Cc4ccc(-c5nc6cc[nH]c(=O)c6cc5-c5ccccc5)cc4)CC3)c2c1 [Borussertib] (10 µM),inactive: 0
5,CCOC(=O)c1c(/C(C#N)=C\N)c2ccc(Cl)c(Cl)c2n1C (10 µM),inactive: 0
6,CC(=O)OC(C)(C)/C=C/C(=O)[C@](C)(O)[C@H]1[C@H](O)C[C@@]2(C)[C@@H]3CC=C4[C@@H](C=C(O)C(=O)C4(C)C)[C@]3(C)C(=O)C[C@]12C [Cucurbitacin E] (2.5 µM),inactive: 0
7,Cc1[nH]ncc1-c1cc2nc([C@H]3CC4CCN3CC4)[nH]c(=O)c2s1 [(R)-Simurosertib] (10 µM),inactive: 0
8,C[C@H]1CC[C@]2(NC1)O[C@H]1C[C@H]3[C@@H]4CC[C@H]5C[C@@H](O)CC[C@]5(C)[C@H]4CC[C@]3(C)[C@H]1[C@@H]2C [Tomatidine] (2 µM),inactive: 0
9,O=Cc1cn(Cc2ccc(Cl)cc2)c2ccccc12 [Oncrasin-1] (10 µM),inactive: 0
10,O=[N+]([O-])/C=C/c1ccc2c(c1)OCO2 (2.5 µM),inactive: 0
11,CCN1CCN(C(=O)Cc2ccc(Nc3ncc(F)c(Nc4ccc(C(=O)Nc5ccccc5Cl)cc4)n3)cc2)CC1 (2.5 µM),inactive: 0
12,COc1ccc2c(c[n+](C)c3c4cc5c(cc4ccc23)OCO5)c1OC [Chelerythrine (chloride)] (10 µM),inactive: 0
13,COC[C@H]1OC(=O)c2coc3c2[C@@]1(C)C1=C(C3=O)[C@@H]2CCC(=O)[C@@]2(C)C[C@H]1OC(C)=O [Wortmannin] (2.5 µM),inactive: 0
14,C[C@H]1CC[C@]2(NC1)O[C@H]1C[C@H]3[C@@H]4CC[C@H]5C[C@@H](O)CC[C@]5(C)[C@H]4CC[C@]3(C)[C@H]1[C@@H]2C [Tomatidine (hydrochloride)] (10 µM),inactive: 0
15,COc1ccc(/C=C/c2cc(OC)c(OC)c(OC)c2)cc1 (2.5 µM),inactive: 0
16,O=c1cc(O)c2ccccc2o1 [4-Hydroxycoumarin] (10 µM),inactive: 0
17,C=CC(=O)N[C@H]1C=C(C)c2c(-c3cnc4ccccc4c3)c3c(N)ncnc3n2C1 (10 µM),inactive: 0
18,N#CC(C#N)=Cc1ccc([N+](=O)[O-])c(O)c1 (10 µM),inactive: 0
19,O=C(O)c1sc2cc(Cl)ccc2c1Cl (10 µM),inactive: 0
20,Cc1n[nH]cc1-c1cc2nc([C@@H]3CC4CCN3CC4)[nH]c(=O)c2s1 [Simurosertib] (2.5 µM),inactive: 0
21,Cn1cc(C2=C(c3cn(C4CCN(Cc5ccccn5)CC4)c4ccccc34)C(=O)NC2=O)c2ccccc21 [Enzastaurin] (10 µM),inactive: 0
22,CN(C)C(=O)c1ccc(Cn2c(C(=O)O)cc3c(Br)cc(Sc4ccc(Cl)c(Cl)c4)cc32)cc1 [Rheb inhibitor NR1] (10 µM),inactive: 0
23,C/C(O)=C(\C#N)C(=O)Nc1cc(Br)ccc1Br (10 µM),inactive: 0
24,O=C1c2ccccc2C(=O)c2c1cccc2-c1cnn(C2CCNCC2)c1 [PDK4-IN-1 (hydrochloride)] (10 µM),inactive: 0
25,COc1ccc(N(C(=O)Oc2c(C)cccc2C)c2ccnc(Nc3ccc(N4CCN(C)CC4)cc3)n2)c(OC)c1 (2.5 µM),inactive: 0
26,C[C@@H]1CC[C@H]2[C@@H](C)C(=O)O[C@@H]3O[C@@]4(C)CC[C@@H]1[C@]32OO4 [Artemisinin] (10 µM),inactive: 0
27,CC(C)(C)c1cc(C=C(C#N)C#N)cc(Br)c1O (2.5 µM),inactive: 0
28,CC1=C[C@]23C(=O)[C@@H](C=C(CO)[C@@H](O)[C@]2(O)[C@H]1O)[C@H]1[C@@H](C[C@H]3C)C1(C)C [Ingenol] (10 µM),inactive: 0

# Quoted from the listing.
# Under kinase-Nluc reporter destabilization hit call, CC(C)(C)c1cc(C=C(C#N)C#N)cc(Br)c1O (2.5 µM) has the entry inactive: 0
# Under kinase-Nluc reporter destabilization hit call, COc1ccc(/C=C/c2cc(OC)c(OC)c(OC)c2)cc1 (2.5 µM) has the entry inactive: 0
